Percent effect of library compounds

Chains of the proteins cited; added tags and fusions are not shown.
UniProt I6X8D2, whole entry: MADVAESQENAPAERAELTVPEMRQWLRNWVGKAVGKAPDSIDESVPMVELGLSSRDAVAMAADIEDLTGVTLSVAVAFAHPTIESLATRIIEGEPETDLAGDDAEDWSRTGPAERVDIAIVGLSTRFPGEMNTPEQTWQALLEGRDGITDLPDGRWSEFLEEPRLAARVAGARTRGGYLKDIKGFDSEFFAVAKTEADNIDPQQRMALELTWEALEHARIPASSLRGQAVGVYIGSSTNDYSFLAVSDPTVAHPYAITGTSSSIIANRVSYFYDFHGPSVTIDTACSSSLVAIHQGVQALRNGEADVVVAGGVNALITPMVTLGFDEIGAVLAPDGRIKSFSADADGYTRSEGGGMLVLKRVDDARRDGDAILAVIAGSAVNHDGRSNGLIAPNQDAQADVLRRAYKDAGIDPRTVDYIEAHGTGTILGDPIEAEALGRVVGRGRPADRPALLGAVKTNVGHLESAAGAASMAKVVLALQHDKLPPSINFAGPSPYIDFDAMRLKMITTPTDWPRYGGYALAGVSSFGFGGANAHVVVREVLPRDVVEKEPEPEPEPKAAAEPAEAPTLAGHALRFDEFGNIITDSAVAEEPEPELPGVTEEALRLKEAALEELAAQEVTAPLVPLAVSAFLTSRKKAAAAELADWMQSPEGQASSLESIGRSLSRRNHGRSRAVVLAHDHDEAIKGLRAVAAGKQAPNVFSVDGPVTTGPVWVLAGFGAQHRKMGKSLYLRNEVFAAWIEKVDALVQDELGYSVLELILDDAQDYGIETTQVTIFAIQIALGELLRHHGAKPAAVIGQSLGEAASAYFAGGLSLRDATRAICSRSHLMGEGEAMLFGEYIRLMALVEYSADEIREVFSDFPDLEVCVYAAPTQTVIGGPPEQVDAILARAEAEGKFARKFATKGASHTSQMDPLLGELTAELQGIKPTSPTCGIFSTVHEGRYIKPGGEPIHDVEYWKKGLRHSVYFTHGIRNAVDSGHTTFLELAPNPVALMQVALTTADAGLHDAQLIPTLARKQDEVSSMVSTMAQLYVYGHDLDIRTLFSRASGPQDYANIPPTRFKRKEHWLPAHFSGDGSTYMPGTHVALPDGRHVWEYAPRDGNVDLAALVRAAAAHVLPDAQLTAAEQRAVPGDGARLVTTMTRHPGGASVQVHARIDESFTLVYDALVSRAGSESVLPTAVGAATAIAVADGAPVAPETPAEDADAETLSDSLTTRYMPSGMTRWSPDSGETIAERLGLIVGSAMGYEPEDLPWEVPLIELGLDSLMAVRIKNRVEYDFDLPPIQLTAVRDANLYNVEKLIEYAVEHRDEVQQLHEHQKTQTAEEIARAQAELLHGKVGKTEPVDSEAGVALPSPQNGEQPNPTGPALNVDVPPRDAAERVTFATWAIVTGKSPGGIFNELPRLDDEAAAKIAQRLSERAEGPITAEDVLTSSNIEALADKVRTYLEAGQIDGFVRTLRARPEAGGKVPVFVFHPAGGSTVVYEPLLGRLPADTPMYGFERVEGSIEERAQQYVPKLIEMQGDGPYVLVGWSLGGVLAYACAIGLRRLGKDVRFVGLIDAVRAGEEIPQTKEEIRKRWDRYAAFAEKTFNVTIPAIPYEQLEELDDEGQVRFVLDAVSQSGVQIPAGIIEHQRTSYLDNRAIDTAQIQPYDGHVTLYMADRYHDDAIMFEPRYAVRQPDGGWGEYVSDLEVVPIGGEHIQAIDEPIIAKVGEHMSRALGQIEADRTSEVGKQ

Data taken from ChEMBL document CHEMBL3988442, “University of Dundee, Small-Polar-MMV Screening Library” (2021).

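Enzyme assay of the thioesterase domain of polyketide synthase 13; the read-out is not stated. Target: Polyketide synthase Pks13, Mycobacterium tuberculosis (UniProt I6X8D2). Tested at 30 µM. Higher reads as stronger inhibition (inferred from which compounds were picked for retests). Of about 67,000 compounds tested this way, about 300 (0.46%) reached 50% or more in at least one test.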

Results are given as percent effect.
How 0% and 100% were set is not recorded. Most values in the screen are low, and negative values occur.
This is an unselected part of the compounds tested.

CCCN1CCc2nc(N3CCOCC3)nc(NC(C)C)c2C1 gave -5.188%. Result for CC(C)=CCC1(CO)CCCN(Cc2nccs2)C1 (centres undefined) was -36.27%. CC(C)(CN1CCC(Cc2cccc(C(=O)O)c2)C1)N1CCOCC1 (centres undefined) gave -7.842%. COc1ccc(C(O)CNc2c(C#N)c(=O)n(C)c(=O)n2C)cc1 (centres undefined) read -27.15%.

Result for COc1ccccc1C(=O)NC(C)CC(=O)O (centres undefined) was -3.295%. CO[C@H]1C[C@@H]2CN(C(=O)c3cc4cccc(F)c4[nH]3)C[C@@H]2C1 read 5.395%. For N#Cc1ccc(N2CCCN(CC(=O)N3CCNC(=O)C3)CC2)cc1 the result was -9.977%. COCCCNC(=O)N1CCN(C(=O)c2nsc3ccc(C)cc23)CC1 read 5.234%.

OCC(O)CSCc1cn(-c2ccc(F)c(Cl)c2)nn1 (centres undefined) gave -5.804%. CCc1nc(NC2CCCN(C(=O)c3cccs3)C2)c2cnn(C)c2n1 (centres undefined) gave -10.45%. For CCOCc1nccc(-c2ccc(OCC)c(C(=O)O)c2)n1 the result was -10.69%. Fc1ccc(-c2nc(CNC3CCc4ncnn4C3)cs2)cc1 (centres undefined) gave -13.7%.

CCc1c(C(=O)NCC(=O)OCC2CC2)cnn1-c1ccc(C)cc1 gave -6.017%. For COc1ccc(F)cc1C[S+]([O-])CC(=O)NCC(C)C (centres undefined) the result was 19.65%. COCCCN(CCOC)C(=O)Nc1ccc(Br)cc1 read 2.353%. For Cc1ccn(-c2ccc(C(=O)N3CCCC(C(N)=O)C3)cc2)n1 (centres undefined) the result was -38.18%.

Result for CCS(=O)(=O)NCCCn1ncc2c(C)cccc21 was -6.753%. Result for Cc1nn(CC(C)C)c(C)c1CC(=O)N1CCCC(NS(C)(=O)=O)C1 (centres undefined) was -11.12%. COc1ccc(F)cc1CN(CC(N)=O)C(C)C read 2.021%. For O=C(c1cncs1)N1CCOCC(Cc2ccncn2)C1 (centres undefined) the result was 3.146%.

With O=C(O)CSc1nnc(-c2cn[nH]c2)n1-c1ccccc1C(F)(F)F the screen gave -15.72%. With Cc1ccc(OCC(=O)N2CCN[C@H]3CS(=O)(=O)C[C@H]32)cn1 the screen gave -29.6%. CC(C)CS(=O)(=O)CCNC(=O)Nc1cccc2ncccc12 gave -18.37%. COc1ccccc1OCCN1CCCCC1Cn1cncn1 (centres undefined) gave -16.34%.

Result for CC(O)(CCc1ccccc1)CNC(=O)c1cccs1 (centres undefined) was -35.72%. Cc1ccc(CN(C)C)cc1NC(=O)C1CC1 gave -37.16%. COCCOc1ccc(NC(=O)C2CC(=O)N(C(C)C)C2)cn1 (centres undefined) read 17.63%. For CNC(=O)NC(=O)CN(Cc1ccc(C#N)cc1)Cc1cccc(F)c1 the result was -54.98%.

Result for CCn1nc(C)c2nc(C)nc(NCCCn3cccn3)c21 was 0.8538%. Result for N#Cc1cc(F)ccc1NCc1ccc(Cn2cncn2)cc1 was -2.156%. Cc1ccc(OC2(C(=O)O)CCN(C(=O)c3ccccc3F)CC2)cn1 read -8.223%. CC(C)CN1CCc2[nH]cnc2C12CCN(C(=O)c1cccnc1)CC2 read -12.64%.

CCCOc1ccc(CNCCn2cccn2)cc1 gave -1.539%. With N#Cc1cccnc1N1CCCN(C(=O)CCc2nccs2)CC1 the screen gave 9.493%. Result for CN(C)CCO[C@H]1C[C@@H](O)C12CCN(c1nccc3ccccc13)CC2 was -2.525%. With Cc1cnn(CC2CCCN2C(=O)CCc2nc3ccccc3[nH]2)c1 (centres undefined) the screen gave -23.94%.

With Cc1ccc(F)cc1S(=O)(=O)N1C[C@@H](C)[C@@](C)(O)C1 the screen gave -7.327%. Cn1ccc(C(=O)NCc2ccc(CN3CCCC3)cc2)cc1=O gave -2.411%. CCOCC(=O)N1CCCn2c(CN3CCOCC3)nnc2C1 read -3.365%.

The last 3 entries again:

structure,percent effect
Cc1ccc(F)cc1S(=O)(=O)N1C[C@@H](C)[C@@](C)(O)C1,-7.327
Cn1ccc(C(=O)NCc2ccc(CN3CCCC3)cc2)cc1=O,-2.411
CCOCC(=O)N1CCCn2c(CN3CCOCC3)nnc2C1,-3.365